Data taken from US20040013614A1, “Acrylic-based adhesive composition” (priority 2000, published 2004).

Assay: Assessment of the strength of the joins on thermoplastic rubber (TR)
Settings: 24 hours after bonding

C=C(C#N)C(=O)OCC [ethyl cyanoacrylate]
failure mode of the join: cohesion failure in the rubber
separation resistance (20 mm/min): 8.3 kN/m
